Source: paper PMC10907597
Results are given in words; binding and its absence hold for the method and conditions named. Binding seen in cells or lysates may run through a third protein. Some entries that bind do so weakly or less than the wild type.

By UniProt entry, the sequences of proteins in these tests, tags left out. Where a name states a change or a piece, a line headed by the entry shows the natural chain unless it says otherwise. Chains listed by the source or under a name are the forms on record and can include a tag or linker. Residues count along the entry.
UniProt O75159: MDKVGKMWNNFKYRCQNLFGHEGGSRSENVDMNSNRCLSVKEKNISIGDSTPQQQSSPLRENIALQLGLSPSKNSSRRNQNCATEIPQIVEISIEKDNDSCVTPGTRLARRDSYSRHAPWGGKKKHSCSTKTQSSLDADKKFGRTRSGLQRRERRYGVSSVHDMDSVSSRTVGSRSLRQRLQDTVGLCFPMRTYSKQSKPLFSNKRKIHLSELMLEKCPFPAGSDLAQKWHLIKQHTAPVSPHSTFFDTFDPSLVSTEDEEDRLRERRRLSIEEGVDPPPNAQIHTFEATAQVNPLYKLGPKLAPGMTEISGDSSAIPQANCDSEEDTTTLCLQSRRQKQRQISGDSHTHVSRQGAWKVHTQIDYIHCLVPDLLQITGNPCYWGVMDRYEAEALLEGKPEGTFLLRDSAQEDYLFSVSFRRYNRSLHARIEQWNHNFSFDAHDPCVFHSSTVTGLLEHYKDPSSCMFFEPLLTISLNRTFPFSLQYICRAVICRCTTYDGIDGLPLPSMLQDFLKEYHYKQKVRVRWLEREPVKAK
SOCS5 N-terminal domain deletion mutant (△N): residues 381-536 of O75159
SOCS5 SOCS Box domain deletion mutant (△SB) (O75159, form named): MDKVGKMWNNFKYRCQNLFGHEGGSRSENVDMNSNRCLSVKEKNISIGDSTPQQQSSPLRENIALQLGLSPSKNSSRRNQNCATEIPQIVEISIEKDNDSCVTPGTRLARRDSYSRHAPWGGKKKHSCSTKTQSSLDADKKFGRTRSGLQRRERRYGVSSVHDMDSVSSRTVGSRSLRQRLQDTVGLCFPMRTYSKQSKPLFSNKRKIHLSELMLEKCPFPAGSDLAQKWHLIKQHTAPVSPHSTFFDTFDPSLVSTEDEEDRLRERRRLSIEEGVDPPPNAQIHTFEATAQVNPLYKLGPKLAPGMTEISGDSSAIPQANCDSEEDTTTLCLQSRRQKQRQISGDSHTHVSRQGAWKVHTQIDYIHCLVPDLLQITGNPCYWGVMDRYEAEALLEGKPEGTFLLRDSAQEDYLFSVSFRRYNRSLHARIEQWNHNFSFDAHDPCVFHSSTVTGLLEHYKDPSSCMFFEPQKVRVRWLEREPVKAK
UniProt P38159: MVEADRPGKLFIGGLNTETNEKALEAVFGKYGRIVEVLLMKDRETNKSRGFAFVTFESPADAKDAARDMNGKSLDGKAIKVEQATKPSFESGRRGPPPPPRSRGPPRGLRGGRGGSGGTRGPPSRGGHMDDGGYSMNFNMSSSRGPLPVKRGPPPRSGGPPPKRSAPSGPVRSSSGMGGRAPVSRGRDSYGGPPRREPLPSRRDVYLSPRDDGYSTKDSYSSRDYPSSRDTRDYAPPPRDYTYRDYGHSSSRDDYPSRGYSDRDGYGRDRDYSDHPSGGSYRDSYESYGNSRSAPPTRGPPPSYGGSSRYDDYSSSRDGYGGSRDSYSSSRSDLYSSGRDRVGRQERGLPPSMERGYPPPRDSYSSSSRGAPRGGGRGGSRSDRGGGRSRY

Assays:
[1] = biological target: SOCS5-HA (suppressor of cytokine signaling 5, HA-tagged) (UniProt O75159); assay: co-IP; NP-40 lysis buffer; anti-HA or anti-c-Myc magnetic beads with lysate overnight at 4 °C; IgG control; Western blot; 293T and Huh7 cells (cells of the mutant panels of Fig. 5 not stated)
[2] = biological target: SOCS5-GST (UniProt O75159); assay: pull-down; GST pulldown of RBMX-myc with SOCS5-GST, called in vitro; conditions not given
[3] = biological target: SOCS5 N-terminal domain deletion mutant (△N) (UniProt O75159); assay: co-IP; NP-40 lysis buffer; anti-HA or anti-c-Myc magnetic beads with lysate overnight at 4 °C; IgG control; Western blot; 293T and Huh7 cells (cells of the mutant panels of Fig. 5 not stated)
[4] = biological target: SOCS5 SOCS Box domain deletion mutant (△SB) (UniProt O75159); assay: as above
[5] = biological target: RBMX-Myc (RNA binding motif protein X-linked, Myc-tagged) (UniProt P38159); assay: as above

Substance | binding [1] | binding [2] | binding [3] | binding [4] | binding [5]
RBMX (RNA binding motif protein X-linked), endogenous (from UniProt P38159 1-391) | binds |  |  |  | 
RBMX-Myc (RNA binding motif protein X-linked, Myc-tagged) (from UniProt P38159 1-391) | binds | binds | binds | binds | 
SOCS5-HA (suppressor of cytokine signaling 5, HA-tagged) (from UniProt O75159 1-536) |  |  |  |  | binds
